# Test results taken from patent US7776858B2, “Methods of treatment of chronic pain using eszopiclone” (Sepracor Inc., priority 2004, dated 2010).
# Some of these results come from one statement about several compounds together.
# Tested on: conscious dogs
# Test: Dose escalation safety study, cardiovascular and respiratory parameters after acute intravenous administration
# Details: highest dose 12 mg/kg
# Method: To establish the safety of eszopiclone, a dose escalation study was carried out. Cardiovascular and respiratory parameters were evaluated in conscious dogs following acute intravenous administration of (R)-, (S)- or racemic zopiclone at three doses (3, 5 and 12 mg/kg).
row,SMILES,hypotensive effect
1,"CN1CCN(C(=O)O[C@H]2c3nccnc3C(=O)N2c2ccc(Cl)cn2)CC1 [Eszopiclone, (+) 6-(5-chloropyrid-2-yl)-5-(4-methylpiperazin-1-yl)carbonyloxy-7-oxo-6,7-dihydro-5H-pyrrolo[3-4-b]pyrazine]",30-40 % decrease from baseline
2,"CN1CCN(C(=O)OC2c3nccnc3C(=O)N2c2ccc(Cl)cn2)CC1 (racemic) [racemic zopiclone, zopiclone]",30-40 % decrease from baseline
